Measurements published in PubChem BioAssay AID1671190 (National Center for Advancing Translational Sciences (NCATS), 2021).
Screen size: about 580,000 compounds; about 6,100 (1.1%) were called active. The inconclusive results got no clear call from the source; some entries with a clear call stand among them for comparison. Calls come from the whole dose curve; as a rule, active = well fitted inhibition curve with a large enough effect; inconclusive = small, poorly fitted or top-dose-only effect, or another doubt; inactive = no such curve, though single readings can be large or run the other way. Potencies beside an inconclusive call are fits to weak or partial responses and may not hold up.

Amino acid sequences for entries named in this document (tags omitted). A change or cut given only in a name is not applied to a line headed by its entry.
UniProt P18054: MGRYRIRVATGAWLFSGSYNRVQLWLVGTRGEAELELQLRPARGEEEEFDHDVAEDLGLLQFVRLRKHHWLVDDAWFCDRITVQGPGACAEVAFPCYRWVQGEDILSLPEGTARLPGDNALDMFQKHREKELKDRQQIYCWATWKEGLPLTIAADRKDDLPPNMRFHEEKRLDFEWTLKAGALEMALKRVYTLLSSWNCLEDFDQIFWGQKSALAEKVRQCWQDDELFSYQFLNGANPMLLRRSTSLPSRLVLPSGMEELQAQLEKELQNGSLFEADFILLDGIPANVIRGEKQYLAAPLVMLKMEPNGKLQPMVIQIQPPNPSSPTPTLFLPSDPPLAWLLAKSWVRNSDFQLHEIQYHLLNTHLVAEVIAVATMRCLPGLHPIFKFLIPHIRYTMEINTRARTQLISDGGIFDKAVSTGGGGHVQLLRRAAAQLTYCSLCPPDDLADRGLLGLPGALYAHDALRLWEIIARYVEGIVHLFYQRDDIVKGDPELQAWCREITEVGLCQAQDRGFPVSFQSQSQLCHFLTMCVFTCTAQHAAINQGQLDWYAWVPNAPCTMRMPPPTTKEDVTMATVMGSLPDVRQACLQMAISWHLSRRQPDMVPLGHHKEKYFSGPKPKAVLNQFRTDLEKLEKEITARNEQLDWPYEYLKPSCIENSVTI

target: Polyunsaturated fatty acid lipoxygenase ALOX12 (Homo sapiens) (UniProt P18054); test: Primary qHTS assay for inhibitors of human arachidonate 12S-lipoxygenase (ALOX12): Round 2; conditions: purified 12hLO, xylenol orange hydroperoxide absorbance; activity change, negative = inhibition: at 108 µM (top of the series) unless noted
Outline: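 Purified human 12hLO at 150 nM in 25 mM Hepes, 0.01% Triton X-100, pH 7.0, preincubated 15 min at room temperature with compound. Reaction started with 40 uM arachidonic acid, 30 min at room temperature. Hydroperoxide measured by Fe-xylenol orange, 573/405 nm absorbance ratio.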
% is set by controls: 0 for no effect and ±100 for the full control effect; potency is the fitted concentration of half-maximal effect.

Compound | activity change, negative = inhibition | Potency
CCNc1ncc(CN2CCN(c3cccc(C(F)(F)F)c3)CC2)cn1 | inactive: 51.7% | –
COc1ccc2nc(NC(=O)Cn3cnc4ccccc4c3=O)sc2c1 | – | inconclusive: 89.1 µM [inhibitor, single point]
Cc1[nH]c(SCC(=O)Nc2cccc(S(=O)(=O)N3CCCC3)c2)nc1Cc1ccccc1 | inactive: 7.06% | –
O=c1c2ccccc2sc2ccccc12 | – | inconclusive: 89.1 µM [inhibitor, partial curve, poor fit]
Cc1cccc(C)c1NC1=NC(C)(C)N=C(N)N1 | – | inconclusive: 11.2 µM [inhibitor, full curve, poor fit]
CNC(=O)C1(N2CCC[C@H]2C(=O)N(C)Cc2cccnc2)CCOCC1 | – | inconclusive: 28.2 µM [inhibitor, partial curve]
Cn1c(SCC(=O)Nc2cccc(F)c2)nnc1-c1cccnc1 | inactive: 461% | –
O=C(c1cc(COc2cccc(C(F)(F)F)c2)on1)N1C[C@@H]2CCC[C@H]1C2 | – | inconclusive: 1.41 µM [inhibitor, full curve, poor fit]
COc1ccc(-c2nc3c(c(=O)[nH]2)CCNC3)cc1 | – | inconclusive: 31.6 µM [inhibitor, single point]
Cc1cc(C)cc(NC(=S)NCc2ccc(S(N)(=O)=O)cc2)c1 | – | inconclusive: 50.1 µM [inhibitor, single point]
CCCCn1c(N)c(N(CCC(C)C)C(=O)COC(=O)c2sccc2C)c(=O)[nH]c1=O | – | inconclusive: 112 µM [inhibitor, single point]
O=C1CCC(C(=O)N2CCOCC2)CN1CCCc1ccccc1 (stereo unspecified) | inactive: 48.7% | –
Cc1ccc(C(=O)N/C(=C/c2ccccc2F)C(=O)NCCCn2ccnc2)cc1 | inactive: -0.576% | –
Cc1nc(C2CCCCN2C(=O)c2ccco2)n[nH]1 (stereo unspecified) | – | inconclusive: 56.2 µM [inhibitor, partial curve, poor fit]
CC(C)(CNC(=O)c1cccc(S(=O)(=O)Nc2ccc(Br)cc2)c1)N1CCOCC1 | – | inconclusive: 44.7 µM [inhibitor, partial curve, poor fit]
CCOC(=O)C(Cc1cc(C)c(CC(C(=O)OCC)C(=O)OCC)cc1C)C(=O)OCC | inactive: 73.4% | –
COc1cc(/C=C2\C(=O)N(c3ccc(NC(C)=O)cc3)N=C2c2ccccc2)ccc1O | – | inconclusive: 50.1 µM [inhibitor, partial curve, poor fit]
C(CNC1C2CC3CC(C2)CC1C3)CN1CCOCC1 (stereo unspecified) | – | inconclusive: 126 µM [inhibitor, single point]
CCCC1N=C2c3ccccc3N=C(SCC(=O)Nc3cc(OC)cc(OC)c3)N2C1=O (stereo unspecified) | – | inconclusive: 39.8 µM [inhibitor, partial curve, poor fit]
CC1C(c2ccccc2)=[N+]([O-])C2(CCCCC2)N1O (stereo unspecified) | – | inconclusive: 126 µM [inhibitor, single point]
Cc1cccn2c(=O)c3cc(C(=O)NC(C)C)n(C)c3nc12 | – | inconclusive: 126 µM [inhibitor, partial curve, poor fit]

Structures from the list above that contain two or more sulfur atoms, in the order listed:
Compound | activity change, negative = inhibition | Potency
Cc1[nH]c(SCC(=O)Nc2cccc(S(=O)(=O)N3CCCC3)c2)nc1Cc1ccccc1 | inactive: 7.06% | –
Cc1cc(C)cc(NC(=S)NCc2ccc(S(N)(=O)=O)cc2)c1 | – | inconclusive: 50.1 µM [inhibitor, single point]

Additional records:

Compound | activity change, negative = inhibition | Potency
Cc1ccsc1C(=O)N(c1nc2ccccc2s1)c1c(C)cccc1C | – | inconclusive: 112 µM [inhibitor, single point]
COCc1cc(=O)n(CC(=O)Nc2ccc(C(C)C)cc2)c(N2CCOCC2)n1 | inactive: 7.49% | –
Cn1cnc([S+](=O)([O-])N2CCCC(c3nnc4n3C(C(=O)O)CC4)C2)c1 (stereo unspecified) | – | inconclusive: 7.94 µM [inhibitor, full curve, poor fit]
CC(C)CNC(=O)c1cc([N+](=O)[O-])ccc1N1CCOCC1 | inactive: -20.7% | –
N#Cc1nc(-c2cccc3ccccc23)oc1N1CCC(C(N)=O)CC1 | – | inconclusive: 44.7 µM [inhibitor, partial curve, poor fit]
CCOC(=O)NC1(NCc2ccccc2)Oc2ccccc2O1 | inactive: -14.2% | –
O=C(N[C@@H](Cn1ccc(=O)[nH]c1=O)C(=O)O)C1CCCCC1 | – | inconclusive: 79.4 µM [inhibitor, partial curve]
O=C(COc1ccc(Cl)cc1)Nc1ccc2oc(-c3ccccc3F)nc2c1 | – | inconclusive: 56.2 µM [inhibitor, partial curve, poor fit]
O=C(CCCc1c[nH]c2ccccc12)NC1CCc2n[nH]c(=O)n2CC1 (stereo unspecified) | inactive: 7.19% | –
COc1cc(C2C3=C(COC3=O)Oc3cc4c(cc32)OCO4)cc(OC)c1O (stereo unspecified) | inactive: -45.7% | –
Cc1ccc(CN2CCC(CNC(=O)Nc3cccc(C(F)(F)F)c3)CC2)cc1 | – | inconclusive: 50.1 µM [inhibitor, partial curve, poor fit]
CCOc1ccc2nc3c(cc2c1)CN(CCOC)C(=NCCOC)S3 | – | inconclusive: 39.8 µM [inhibitor, partial curve, poor fit]
CCN(C(=O)COC(=O)/C=C/c1ccc(S(=O)(=O)N2CCc3ccccc32)cc1)C1CCS(=O)(=O)C1 (stereo unspecified) | – | inconclusive: 89.1 µM [inhibitor, single point]
N#C/C(=C\c1ccco1)C(=O)Nn1cnnc1 | – | inconclusive: 44.7 µM [inhibitor, partial curve, poor fit]
CCOc1ccc(Nc2nc(N)c([N+](=O)[O-])c(N3CCN(CC)CC3)n2)cc1 | – | inconclusive: 126 µM [inhibitor, partial curve, poor fit]
CN(CC[C@H]1CN(C(=O)c2ccnc(Cl)c2)CC[C@H]1CC(=O)O)c1ccccc1 | – | inconclusive: 70.8 µM [inhibitor, partial curve]
Cc1ccc(C2NC(=O)N(C)C3=C2C(=O)N(c2ccc(C)cc2)C3)cc1 (stereo unspecified) | – | inconclusive: 56.2 µM [inhibitor, partial curve, poor fit]
CCOc1ccc(NC(=O)Cn2cc(C(=O)c3ccc(F)cc3)c(=O)c3cc4c(cc32)OCO4)cc1 | – | inconclusive: 112 µM [inhibitor, single point]
COc1ccc(CNC(=O)COC(=O)CCCOc2ccc(Cl)cc2Cl)cc1 | inactive: 1.46% | –
CCOC1=CC2=C(C(=O)C(Cl)=CC2=O)[C@@H]2CN(S(=O)(=O)c3ccc(C)cc3)[C@@H](c3ccccc3)[C@H]12 | – | active: 0.891 µM
